No constants are given. Whether binding was seen depends on the method and setting. Binding seen in cells or lysates may run through a third protein. Some entries that bind do so weakly or less than the wild type.
Target: β1 integrin (endogenous) (human (endogenous in HEK293-derived, MCF10A, MCF 7, MDA-MB-231, U2932 cells)) (UniProt P05556)
Test: co-IP; 1.5 mg of NP-40 lysate precleared with Protein A/G beads; β1 integrin immunoprecipitated with the TS2/16 antibody; hERG1 detected by Western blot

Sequences of proteins named here, by UniProt entry; tags and fusion partners are left off.
UniProt P05556: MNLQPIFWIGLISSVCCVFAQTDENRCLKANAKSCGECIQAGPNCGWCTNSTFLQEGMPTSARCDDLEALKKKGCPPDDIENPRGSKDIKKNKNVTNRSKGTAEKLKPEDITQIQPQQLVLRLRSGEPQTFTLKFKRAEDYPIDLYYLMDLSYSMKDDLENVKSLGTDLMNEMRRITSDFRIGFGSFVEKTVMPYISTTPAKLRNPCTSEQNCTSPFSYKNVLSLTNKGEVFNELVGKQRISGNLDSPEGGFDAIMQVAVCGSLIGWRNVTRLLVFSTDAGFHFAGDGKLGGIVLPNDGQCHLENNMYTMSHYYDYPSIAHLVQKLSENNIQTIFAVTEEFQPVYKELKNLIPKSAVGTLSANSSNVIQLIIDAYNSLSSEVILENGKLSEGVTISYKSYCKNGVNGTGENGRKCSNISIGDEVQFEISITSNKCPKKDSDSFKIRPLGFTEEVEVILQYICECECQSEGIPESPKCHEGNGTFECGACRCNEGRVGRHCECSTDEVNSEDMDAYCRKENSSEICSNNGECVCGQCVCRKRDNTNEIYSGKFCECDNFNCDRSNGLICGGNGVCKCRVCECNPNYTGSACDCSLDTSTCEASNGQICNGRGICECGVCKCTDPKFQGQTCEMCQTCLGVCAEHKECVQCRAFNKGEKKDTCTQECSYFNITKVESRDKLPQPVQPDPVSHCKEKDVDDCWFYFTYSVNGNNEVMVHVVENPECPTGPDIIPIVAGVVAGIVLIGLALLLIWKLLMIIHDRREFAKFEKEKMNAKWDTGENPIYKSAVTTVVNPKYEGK
UniProt Q12809: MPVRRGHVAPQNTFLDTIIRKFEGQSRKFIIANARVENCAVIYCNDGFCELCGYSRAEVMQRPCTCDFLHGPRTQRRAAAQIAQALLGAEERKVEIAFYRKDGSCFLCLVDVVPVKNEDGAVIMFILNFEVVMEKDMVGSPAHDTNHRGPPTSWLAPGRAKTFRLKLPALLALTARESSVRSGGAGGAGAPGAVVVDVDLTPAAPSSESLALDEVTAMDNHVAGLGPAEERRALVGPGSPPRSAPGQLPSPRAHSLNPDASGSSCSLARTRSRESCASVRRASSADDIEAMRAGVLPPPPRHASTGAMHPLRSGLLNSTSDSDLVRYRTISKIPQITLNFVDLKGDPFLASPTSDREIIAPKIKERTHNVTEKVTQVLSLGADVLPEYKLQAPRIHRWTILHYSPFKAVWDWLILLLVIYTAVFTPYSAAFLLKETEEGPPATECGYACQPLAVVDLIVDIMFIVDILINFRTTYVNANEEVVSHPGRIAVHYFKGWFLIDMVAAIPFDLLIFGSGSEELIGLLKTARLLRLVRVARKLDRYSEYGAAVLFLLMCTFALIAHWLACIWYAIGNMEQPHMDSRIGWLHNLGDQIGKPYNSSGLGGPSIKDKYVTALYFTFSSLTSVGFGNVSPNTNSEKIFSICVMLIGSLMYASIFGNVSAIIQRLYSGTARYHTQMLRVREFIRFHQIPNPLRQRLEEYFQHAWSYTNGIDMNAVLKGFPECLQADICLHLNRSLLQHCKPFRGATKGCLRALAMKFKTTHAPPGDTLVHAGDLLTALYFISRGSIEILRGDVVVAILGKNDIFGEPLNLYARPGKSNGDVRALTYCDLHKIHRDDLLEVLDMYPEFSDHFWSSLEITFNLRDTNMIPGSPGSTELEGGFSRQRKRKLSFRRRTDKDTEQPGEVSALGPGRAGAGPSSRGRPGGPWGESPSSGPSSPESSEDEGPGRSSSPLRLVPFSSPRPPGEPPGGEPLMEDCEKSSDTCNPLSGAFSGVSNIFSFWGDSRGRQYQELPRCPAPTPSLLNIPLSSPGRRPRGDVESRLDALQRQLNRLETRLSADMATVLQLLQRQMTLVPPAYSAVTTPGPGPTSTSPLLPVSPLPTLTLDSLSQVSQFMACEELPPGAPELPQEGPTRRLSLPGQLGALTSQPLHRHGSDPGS

In the case of “hERG1 (endogenous) (from UniProt Q12809 1-1159)”, the binding is reported as “binds”.

In the case of “hERG1 stably transfected in HEK293 cells (HEK-hERG1) (from UniProt Q12809 1-1159)”, the binding is reported as “binds”.
